PubChem BioAssay AID1259285, Sanger Institute | 2017
In all, the deposit lists 794 reagents; this is a part drawn at random. In the full data, 20 (2.5%) are marked active. 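Calls rest on the drug-free arm alone and ignore synergy scores; viability ratios seem to be capped at 1.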 Further read-outs or replicates are left out here. The record does not give: the amount of reagent, the time to read-out.

- Test: 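Search of the kinome for kinases worth combining with drugs in colon cancer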 (primary screen)
- Cell system: human HCC56 colorectal cancer cells
- Reagents: siRNA pool against human genes
- Challenge: DMSO vehicle, or anchor drug BYL719 at 1 µM, cetuximab at 5 µg/ml, or trametinib at 10 nM
- Detection: 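Replicate-averaged viability relative to non-targeting siRNA, expressed as a robust z-score from controls, plus a synergy score for each of three anchor drugs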
- Direction: viability robust z-score, no drug: higher = more viable cells, weaker knock-down effect
- Rule for the call: 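a knock-down counts as essential if its viability z-score without drug is under -3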
- Calls: active = essential without drug; inactive = no change without drug

{"gene knocked down": "ROCK1 (Rho associated coiled-coil containing protein kinase 1)", "viability robust z-score, no drug": 0.458, "Call": "inactive"}
{"gene knocked down": "ATR (ATR checkpoint kinase)", "viability robust z-score, no drug": 0.458, "Call": "inactive"}
{"gene knocked down": "CSNK1G3 (casein kinase 1 gamma 3)", "viability robust z-score, no drug": 0.458, "Call": "inactive"}
{"gene knocked down": "EGFR (epidermal growth factor receptor)", "viability robust z-score, no drug": -0.13, "Call": "inactive"}
{"gene knocked down": "SRP72 (signal recognition particle 72)", "viability robust z-score, no drug": 0.458, "Call": "inactive"}
{"gene knocked down": "ACVRL1 (activin A receptor like type 1)", "viability robust z-score, no drug": 0.458, "Call": "inactive"}

Next part (2 carried over from the part before).
{"gene knocked down": "SRP72 (signal recognition particle 72)", "viability robust z-score, no drug": 0.458, "Call": "inactive"}
{"gene knocked down": "ACVRL1 (activin A receptor like type 1)", "viability robust z-score, no drug": 0.458, "Call": "inactive"}
{"gene knocked down": "SMAD4 (SMAD family member 4)", "viability robust z-score, no drug": 0.458, "Call": "inactive"}
{"gene knocked down": "TJP2 (tight junction protein 2)", "viability robust z-score, no drug": 0.458, "Call": "inactive"}
{"gene knocked down": "MAP3K1 (mitogen-activated protein kinase kinase kinase 1)", "viability robust z-score, no drug": 0.458, "Call": "inactive"}
{"gene knocked down": "STK17A (serine/threonine kinase 17a)", "viability robust z-score, no drug": -1.56, "Call": "inactive"}
{"gene knocked down": "RET (ret proto-oncogene)", "viability robust z-score, no drug": 0.458, "Call": "inactive"}
{"gene knocked down": "AXL (AXL receptor tyrosine kinase)", "viability robust z-score, no drug": 0.458, "Call": "inactive"}
